Source: patent publication US9556205B2, “Fungicide N-[(trisubstitutedsilyl)methyl]-carboxamide derivatives” (BAYER INTELLECTUAL PROPERTY GMBH, priority 2010, dated 2017)
Some entries share one result that the patent states for a list of compounds.

Tests used:
[1] = system: Alternaria brassicae; assay: In vivo test on Alternaria brassicae (leaf spot of crucifers); conditions: radish (Pernot variety), 500 ppm of active ingredient, grading 6 to 7 days after contamination
[2] = system: Pyrenophora teres; assay: In vivo test on Pyrenophora teres (barley net blotch), Example K; conditions: barley (Plaisant variety), 500 ppm of active ingredient, grading 12 days after contamination

Cc1nn(C)c(F)c1C(=O)N(C[Si](C)(C)c1ccccc1)C1CC1 [Example 8, N-cyclopropyl-N-{[dimethyl(phenyl)silyl]methyl}-5-fluoro-1,3-dimethyl-1H-pyrazole-4-carboxamide]
protection [1]: at least 70%
protection [2]: at least 70%

CCc1nn(C)c(F)c1C(=O)N(C[Si](C)(C)c1ccccc1)C1CC1 [Example 7]
protection [1]: at least 70%
protection [2]: at least 70%
